Assay results published in patent US20180230231A1 (Memorial Sloan Kettering, published 2018).
These are yes or no findings as the source states them, for the method shown. Some entries that bind do so weakly or less than the wild type. Ends that are not written are not given here.

Key:
[1] = biological target: T1, mouse MUC16 on ID8 and BR5-FVB1 cells (mouse); assay: Western blot of ID8 (mouse) cell extract, primary hybridoma supernatant 1:10
T1 sequence: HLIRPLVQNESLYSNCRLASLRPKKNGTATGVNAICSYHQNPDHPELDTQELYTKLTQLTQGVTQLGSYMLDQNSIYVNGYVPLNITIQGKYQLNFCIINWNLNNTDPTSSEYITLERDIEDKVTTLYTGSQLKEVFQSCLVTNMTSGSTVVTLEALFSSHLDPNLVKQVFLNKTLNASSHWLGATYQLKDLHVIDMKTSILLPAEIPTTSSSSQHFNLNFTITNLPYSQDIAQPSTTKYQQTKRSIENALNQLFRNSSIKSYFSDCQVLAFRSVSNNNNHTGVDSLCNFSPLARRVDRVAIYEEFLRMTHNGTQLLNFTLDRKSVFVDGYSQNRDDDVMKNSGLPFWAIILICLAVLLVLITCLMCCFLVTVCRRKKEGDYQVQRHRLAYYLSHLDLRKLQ

[2] = biological target: T1, mouse MUC16 on ID8 and BR5-FVB1 cells (mouse); assay: FACS on ID8 (mouse) cells, purified antibody followed by goat anti-mouse IgG2b-PE
[3] = biological target: T1, mouse MUC16 on ID8 and BR5-FVB1 cells (mouse); assay: Western blot of BR5-FVB1 (mouse) cell extract, primary hybridoma supernatant 1:10

Measured: binding

B1: 12B10-3G10 (antibody, V domains shown)
VH: EVKLEESGGGLVQPKGSLKLSCAASGFTFNTYAVHWVRQAPGKGMEWVARIRSKSGNYATYYADSVKDRFTISRNDSQSMLYLQMNNLKTEDTAIYYCVRAGNNGAFPYWGQGTTVTVSS
VL: DIELTQSPSSLSASLGGRVTITCKASQDIKKYIAWYQHKPGKTPRLLIHFTSTLQTGIPSRFSGRGSGRDYSFSISNLESEDIATYYCLQYDSLYTFGGGTKLEIKR
notes: Mouse mAb against mouse MUC16, IgG 2b; also called mouse 12B10 mAb; 12B10-3F7
binds: all assays above
